According to publication PMC10786907:
Results are given in words; binding and its absence hold for the method and conditions named. In cells and extracts the contact can be indirect. Some binding calls cover weakened binding; strength is not graded here. Sequences can lack the tags named with a protein.

Target: T1, Flag-FBXO31 (UniProt Q5XUX0)
T1 sequence: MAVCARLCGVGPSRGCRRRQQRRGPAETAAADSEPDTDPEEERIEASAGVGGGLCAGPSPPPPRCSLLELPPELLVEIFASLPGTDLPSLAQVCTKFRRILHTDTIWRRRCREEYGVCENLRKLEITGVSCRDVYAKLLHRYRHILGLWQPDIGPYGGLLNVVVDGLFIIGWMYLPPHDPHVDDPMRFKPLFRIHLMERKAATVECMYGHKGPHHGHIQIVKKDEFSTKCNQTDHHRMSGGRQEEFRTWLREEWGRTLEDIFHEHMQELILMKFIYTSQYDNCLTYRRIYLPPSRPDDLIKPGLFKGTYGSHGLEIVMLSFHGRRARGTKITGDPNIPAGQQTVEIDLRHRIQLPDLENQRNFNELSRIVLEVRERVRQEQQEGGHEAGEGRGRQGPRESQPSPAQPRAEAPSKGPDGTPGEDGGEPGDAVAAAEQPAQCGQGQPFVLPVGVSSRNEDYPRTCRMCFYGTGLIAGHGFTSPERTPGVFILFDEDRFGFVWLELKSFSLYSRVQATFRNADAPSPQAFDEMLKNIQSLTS
Experiment: co-IP; transfected cells (293T, Panc-1, PaTu-8988, SW1990) treated with 10 μM MG132 for 6 h; NP40 lysate; HA or Flag magnetic beads; washed 3 times with TBST; western blotting

B1: SIRT2 (protein, UniProt Q8IXJ6 1-389)
chain: MAEPDPSHPLETQAGKVQEAQDSDSDSEGGAAGGEADMDFLRNLFSQTLSLGSQKERLLDELTLEGVARYMQSERCRRVICLVGAGISTSAGIPDFRSPSTGLYDNLEKYHLPYPEAIFEISYFKKHPEPFFALAKELYPGQFKPTICHYFMRLLKDKGLLLRCYTQNIDTLERIAGLEQEDLVEAHGTFYTSHCVSASCRHEYPLSWMKEKIFSEVTPKCEDCQSLVKPDIVFFGESLPARFFSCMQSDFLKVDLLLVMGTSLQVQPFASLISKAPLSTPRLLINKEKAGQSDPFLGMIMGLGGGMDFDSKKAYRDVAWLGECDQGCLALAELLGWKKELEDLVRREHASIDAQSGAGVPNPSTSASPKKSPPPAKDEARTTEREKPQ
For B1, the binding was “binds”.
